From paper doi:10.1101/2022.01.21.477299
Results are given in words; binding and its absence hold for the method and conditions named. In cells and extracts the contact can be indirect. Some results given as binding are weak or reduced against the parent protein; the word gives no strength.

Sequences of proteins named here, by UniProt entry; tags and fusion partners are left off.
UniProt Q9DCD6: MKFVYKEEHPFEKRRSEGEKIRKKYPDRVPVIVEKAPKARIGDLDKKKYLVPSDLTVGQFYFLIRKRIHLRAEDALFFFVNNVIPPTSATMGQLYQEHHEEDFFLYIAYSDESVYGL
UniProt Q6VNB8: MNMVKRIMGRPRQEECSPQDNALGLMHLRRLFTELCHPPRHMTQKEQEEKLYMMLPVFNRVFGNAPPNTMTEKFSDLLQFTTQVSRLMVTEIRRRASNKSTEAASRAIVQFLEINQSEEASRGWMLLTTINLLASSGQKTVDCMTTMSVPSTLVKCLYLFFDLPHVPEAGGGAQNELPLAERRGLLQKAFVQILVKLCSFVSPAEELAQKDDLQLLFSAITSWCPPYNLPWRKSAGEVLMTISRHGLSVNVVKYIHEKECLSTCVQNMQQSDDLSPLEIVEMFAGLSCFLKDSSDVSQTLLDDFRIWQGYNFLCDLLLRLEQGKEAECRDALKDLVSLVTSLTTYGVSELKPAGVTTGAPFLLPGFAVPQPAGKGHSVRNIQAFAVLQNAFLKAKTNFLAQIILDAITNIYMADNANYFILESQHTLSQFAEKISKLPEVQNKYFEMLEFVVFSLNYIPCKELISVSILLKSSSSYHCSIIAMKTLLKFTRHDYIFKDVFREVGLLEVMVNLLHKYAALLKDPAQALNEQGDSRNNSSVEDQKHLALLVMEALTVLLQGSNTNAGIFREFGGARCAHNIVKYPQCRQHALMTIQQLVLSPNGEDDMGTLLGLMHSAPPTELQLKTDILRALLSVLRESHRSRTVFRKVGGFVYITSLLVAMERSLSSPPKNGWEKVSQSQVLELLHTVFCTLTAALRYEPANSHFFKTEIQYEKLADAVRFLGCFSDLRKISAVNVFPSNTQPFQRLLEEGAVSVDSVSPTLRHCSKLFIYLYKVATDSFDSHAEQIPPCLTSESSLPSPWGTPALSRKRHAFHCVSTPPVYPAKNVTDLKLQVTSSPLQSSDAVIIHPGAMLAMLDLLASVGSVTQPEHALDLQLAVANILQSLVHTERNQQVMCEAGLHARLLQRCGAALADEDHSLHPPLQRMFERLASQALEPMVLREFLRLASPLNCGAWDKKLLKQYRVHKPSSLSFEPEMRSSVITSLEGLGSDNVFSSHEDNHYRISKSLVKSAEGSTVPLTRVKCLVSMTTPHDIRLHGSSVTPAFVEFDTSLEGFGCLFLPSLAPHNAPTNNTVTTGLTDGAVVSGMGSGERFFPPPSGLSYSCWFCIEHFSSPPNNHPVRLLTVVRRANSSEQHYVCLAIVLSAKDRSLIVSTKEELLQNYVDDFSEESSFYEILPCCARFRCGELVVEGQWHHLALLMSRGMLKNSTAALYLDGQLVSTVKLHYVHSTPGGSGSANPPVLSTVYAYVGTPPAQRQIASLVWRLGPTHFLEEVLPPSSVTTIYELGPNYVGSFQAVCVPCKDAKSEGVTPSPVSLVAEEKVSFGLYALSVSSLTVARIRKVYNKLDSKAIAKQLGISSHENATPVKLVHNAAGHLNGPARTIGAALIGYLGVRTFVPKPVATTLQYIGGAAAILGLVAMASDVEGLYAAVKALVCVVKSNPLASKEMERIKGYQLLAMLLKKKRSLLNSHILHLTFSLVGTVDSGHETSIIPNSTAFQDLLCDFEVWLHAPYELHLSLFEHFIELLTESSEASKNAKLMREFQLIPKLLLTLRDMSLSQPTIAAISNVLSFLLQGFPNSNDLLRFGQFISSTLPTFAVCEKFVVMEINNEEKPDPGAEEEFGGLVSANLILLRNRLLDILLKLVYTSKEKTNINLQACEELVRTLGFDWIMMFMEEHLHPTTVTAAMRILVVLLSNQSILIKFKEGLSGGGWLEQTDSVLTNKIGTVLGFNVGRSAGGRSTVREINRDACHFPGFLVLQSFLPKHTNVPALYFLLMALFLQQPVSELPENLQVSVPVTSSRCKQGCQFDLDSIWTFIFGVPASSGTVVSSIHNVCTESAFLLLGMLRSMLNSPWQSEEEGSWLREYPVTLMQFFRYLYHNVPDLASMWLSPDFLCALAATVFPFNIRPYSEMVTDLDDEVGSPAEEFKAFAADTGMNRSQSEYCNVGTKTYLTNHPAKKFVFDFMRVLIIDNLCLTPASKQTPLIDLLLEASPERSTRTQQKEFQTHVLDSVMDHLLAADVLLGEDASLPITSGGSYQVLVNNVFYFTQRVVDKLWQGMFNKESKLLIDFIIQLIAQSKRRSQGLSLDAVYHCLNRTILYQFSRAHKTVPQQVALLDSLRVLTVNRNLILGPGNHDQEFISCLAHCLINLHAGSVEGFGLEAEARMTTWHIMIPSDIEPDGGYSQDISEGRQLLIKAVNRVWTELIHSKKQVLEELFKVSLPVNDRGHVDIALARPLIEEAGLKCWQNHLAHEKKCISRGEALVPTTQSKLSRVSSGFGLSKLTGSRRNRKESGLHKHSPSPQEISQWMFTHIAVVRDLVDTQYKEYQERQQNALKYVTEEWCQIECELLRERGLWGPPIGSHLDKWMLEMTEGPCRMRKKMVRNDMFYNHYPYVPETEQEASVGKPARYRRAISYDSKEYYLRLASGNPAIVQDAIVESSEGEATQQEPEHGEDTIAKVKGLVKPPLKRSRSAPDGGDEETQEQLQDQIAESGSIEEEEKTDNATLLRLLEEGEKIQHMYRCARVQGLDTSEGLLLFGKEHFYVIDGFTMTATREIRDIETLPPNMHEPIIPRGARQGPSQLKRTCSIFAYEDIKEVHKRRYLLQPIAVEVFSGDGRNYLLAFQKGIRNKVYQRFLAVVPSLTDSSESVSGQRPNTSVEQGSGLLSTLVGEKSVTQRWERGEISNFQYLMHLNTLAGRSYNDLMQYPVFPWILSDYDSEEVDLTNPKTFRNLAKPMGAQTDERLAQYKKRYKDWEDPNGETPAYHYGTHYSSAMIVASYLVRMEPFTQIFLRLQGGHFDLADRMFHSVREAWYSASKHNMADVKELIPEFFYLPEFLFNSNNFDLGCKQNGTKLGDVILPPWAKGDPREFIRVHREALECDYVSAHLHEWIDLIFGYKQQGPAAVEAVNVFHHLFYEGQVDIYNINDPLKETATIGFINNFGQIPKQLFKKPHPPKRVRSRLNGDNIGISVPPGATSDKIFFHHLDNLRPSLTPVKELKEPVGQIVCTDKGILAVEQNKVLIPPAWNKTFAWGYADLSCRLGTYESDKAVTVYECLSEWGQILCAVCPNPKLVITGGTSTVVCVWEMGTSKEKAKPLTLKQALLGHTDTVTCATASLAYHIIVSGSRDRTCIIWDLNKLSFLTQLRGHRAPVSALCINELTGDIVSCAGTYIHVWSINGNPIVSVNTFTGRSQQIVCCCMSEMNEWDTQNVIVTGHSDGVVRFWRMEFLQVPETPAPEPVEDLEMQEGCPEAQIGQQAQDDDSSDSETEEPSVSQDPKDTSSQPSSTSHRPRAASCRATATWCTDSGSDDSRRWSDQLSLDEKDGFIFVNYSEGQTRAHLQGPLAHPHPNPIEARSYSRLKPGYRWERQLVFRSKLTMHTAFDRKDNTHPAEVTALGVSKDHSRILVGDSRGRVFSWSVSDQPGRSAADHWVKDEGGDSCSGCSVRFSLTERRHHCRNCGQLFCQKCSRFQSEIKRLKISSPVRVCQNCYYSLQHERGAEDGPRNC

Target: GABARAP (mouse (endogenous in BMDMs)) (UniProt Q9DCD6)
Assay: co-IP

binding: binds
Substance: WDFY3 (WD repeat and FYVE domain containing 3) (from UniProt Q6VNB8 1-3508)
